Data set [1] addresses T1, ArnR ([4Fe-4S] form) (Corynebacterium glutamicum ATCC 13032) (UniProt Q8NR72).
T1 sequence (looked up, limits assumed): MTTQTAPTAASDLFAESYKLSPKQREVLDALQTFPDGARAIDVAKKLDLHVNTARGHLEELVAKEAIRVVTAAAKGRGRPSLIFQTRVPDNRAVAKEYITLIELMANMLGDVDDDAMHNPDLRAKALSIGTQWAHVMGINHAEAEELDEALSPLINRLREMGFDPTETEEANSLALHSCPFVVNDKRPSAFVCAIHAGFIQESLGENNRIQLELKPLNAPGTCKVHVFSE
The experiment in a line: SPR. To be noted: anaerobic, 1 mM DTT, SPR: HBS+P (10 mM HEPES, 150 mM NaCl, surfactant P20) with 1 mM DTT, pH 7.4, 25 C, recombinant protein, protein details: C-terminal His.

For data set [2], the target named is T1, ArnR ([4Fe-4S] form) (Corynebacterium glutamicum ATCC 13032). The data set can be described thus: native MS. To be noted: native MS: DNA in 100 mM ammonium acetate, pH 8, recombinant protein, protein details: C-terminal His.

The results in this text go back to paper PMC12343034, “ArnR binds a [4Fe–4S] cluster and indirectly senses anaerobicity in Corynebacteria”.

Construct, isoform or probe ends are uncertain for at least one entry. No signal at the amounts used counts as a negative. Protein sequences can lack the tags named with them. For some of these results: Weaker means in comparison with the reference protein, sequence or condition of that experiment.

For the sequence “GGATTTAATCTAATTAAATAAATCCCAGGA / TCCTGGGATTTATTTAATTAGATTAAATCCCCTACCCTACGTCCTCCTGC / GCAGGAGGACGTAGGGTAGG”, the Kd in data set [1] (concentration as ArnR dimer (60 nM as cluster), label: biotin on ReDCaT_F (S9)) was 30 nM.

As for “GCAGGAGGACGTAGGGTAGG (double strand) [ReDCaT reference duplex (ReDCaT_F/ReDCaT_R)]”, the binding result in data set [1] (negligible binding to reference surface, label: biotin on ReDCaT_F) is “no binding”.

For the sequence “GGATTTAATCTAATTAAATAAATCCCAGGA (double strand) [hmp promoter 30 bp (JC05_F/JC06_R)]”, the binding result in data set [2] (di-nitrosylated [4Fe-4S] dimer (2 NO per dimer, DEA NONOate, ~2 NO per cluster)) is listed as “no binding”; in data set [2] (mono-nitrosylated [4Fe-4S] dimer (1 NO per dimer, DEA NONOate, ~2 NO per cluster), retains DNA binding to some extent) it was “binds more weakly”.

For orientation: Kd means the concentration at which binding is half-saturated.
